The text below walks through data of paper PMC9160355.

Chains of the proteins cited; added tags and fusions are not shown.
UniProt P0AG30, whole entry: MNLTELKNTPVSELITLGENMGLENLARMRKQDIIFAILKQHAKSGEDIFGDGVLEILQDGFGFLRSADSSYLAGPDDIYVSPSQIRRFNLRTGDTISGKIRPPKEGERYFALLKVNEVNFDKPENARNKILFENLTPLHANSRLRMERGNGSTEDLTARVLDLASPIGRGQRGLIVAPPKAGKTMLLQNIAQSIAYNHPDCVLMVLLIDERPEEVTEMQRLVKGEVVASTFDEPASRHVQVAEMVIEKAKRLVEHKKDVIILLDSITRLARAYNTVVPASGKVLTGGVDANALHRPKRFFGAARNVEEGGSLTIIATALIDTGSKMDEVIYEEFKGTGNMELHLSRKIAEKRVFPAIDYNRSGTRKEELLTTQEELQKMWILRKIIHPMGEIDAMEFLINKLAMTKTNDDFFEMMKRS

Construct, isoform or probe ends are uncertain for at least one entry.

As usually defined, the Kd is the free concentration of one partner at which half of the binding sites on the other are occupied at equilibrium, for simple one-to-one binding.

The data set addresses Rho WT (Escherichia coli) (UniProt P0AG30). Description: EMSA. As to conditions: 25 mM Tris-HCl pH 8.0, 5 mM MgCl2, 50 mM KCl, 1 mM DTT, 0.1 mg/ml BSA; 5 nM RNA, 0-50 nM Rho; 37 °C 5 min; 4% native gel at 4 °C; recombinant protein; label: [α-32P]UTP internal; probe letters rebuilt from the primers and the genome.
For “GGGAGAACUGCUUACGCGGCAUUAACAAUCGGCCGCCCGACAAUACUGGAGAUGAAUAUGAGCUAUACCCUGCCAUCCCUGCCGUAUGCUUACGAUGCCCUGGAACCGCACUUCGAUAAGCAGACCAUGGAAAUCCACCACACCAAACACCAUCAGACCUACGUAAACAACGCCAACGCGGCGCUGGAAAGCCUGCCAGAAUUUGCCAACCUGCCGGUUGAAGAGCUGAUCACCAAACUGGACCAGCUGCCAGCAGACAAGAAAACCGUACUGCGCAACAACGCUGGCGGUCACGCUAACCACAGCC [sodA terminator RNA]”, the Kd was 9.99 nM.
On to “GGGAGAGCUUCACUGACAUAUUCUGCGAACAACAUGCCGAACGUCGUAAAUAUGACCAGUCAAUAUCAGGACGAAGUUCUUCGCACAGAACCUCACCUCUUGUUGCACGUUCAAUUGCUGGACAUCUCUCGGCAGGCAAUUGACGUACCCCUUUGAUCCAUUGAUUUACGCUUGGAGGUGAUACACCUAAAAGCCUAGCCAUUGCUGAUUGCCCACCGACAACAGCACAAGCUUGCUUGAAUGAAUAGUUCUCUUUUUUCAUCGAAUGAACUCCAAAAACACACAGAAAUAUUAGGCGACGCCUAACGCAAUUGUCAAUAGGCUGUGCCUAAUGCAGUAAGG [trac (rac) terminator RNA]”, for which the dissociation constant Kd came out at 3.08 nM.
As for “GGGAGAGGGUGAUUUUUAUUCAGGAUCGCAUUUACAUCUGAUACAACCCAAUAAUUCGUGUAUCAGAGUUUAAACAGAGUUGUUUGCCACCAUCUCAAAUCUGUCGUGGAUAAAUCCUCCGUAGCCUUUACACUUAGGUAGCAAUAAAGGCACACAGAUGCAGCAAAGGAAUAAAUCAUGGGAUCUGAUGCGAAAAACUUGAUGAGCGACGGGAACGUGCAAAUUGUUAAGACCGGCGAGGUCAUUGGCGCGACGCAACUUACUGAAGGCGAGUUGAUUGUUGAAGCUGGCGGAAGAGCCGAAAAUAC [ydhQ terminator RNA]”, the Kd was 16.4 nM.
Regarding “GGGAGAGUGACAGCGCACCAAAUCCCCGGCUACGCCCGAAGCCGGGCAGGUCAACAAGGUGCAGCGUAAAAUGCGAGCUAAGUUCCUCGUCAAUGCAACGCCACACUUCGGCAUUCAGUCCCCAUCCGUGCAGCAGCACAAGAUGAACAUUCCCCUGACCUUUGGUCUGCCACCAGAUGUUAUUCAUCCGCUAUUGUUCUCUUUUGACUUACAAGGAUGAACAUAUGCUAACAGUACCGGGAUUAUGCUGGCUAUGCCGAAUGCCACUGGCGUUAGGUCAUUGGGGGAUUUGUUCGGUCUGUUCACG [gntX terminator RNA]”, the equilibrium dissociation constant (Kd) turned out to be 23.2 nM.
Turning to “GGGAGAGUGGCAUAAACGCCUCAUCCGCCCUUGAGGAACAGCGCGAUCGGCAGCCGCGUUGUAUCAGGCAUCCUUUCAGACUCCUCCGAAUCCUUAAGUAUUUCCAGCCAUUCCCGCGCUUUUCAUCUUCUGUCUGAUAGCUGCUUUUCUCCUUCGCUUGCAUGAUUGGCAUAACUGCAAAGAAGGAGGUGUUCCCGUGAAUAAAUCAAUGUUGGCGGGUAUCGGGAUUGGUGUCGCAGCUGCGCUGGGCGUAGCGGCAGUGGCCAGUCUGAACGUGUUUGAACGGGGCCCGCAAUACGCUCAGGUUG [ycfJ terminator RNA]”, the Kd was found to be 18.5 nM.
